PMC7817834

Target: T1, ANXA1 (stably expressed in ANXA1/293T cells) (human) (UniProt P04083)
T1 sequence: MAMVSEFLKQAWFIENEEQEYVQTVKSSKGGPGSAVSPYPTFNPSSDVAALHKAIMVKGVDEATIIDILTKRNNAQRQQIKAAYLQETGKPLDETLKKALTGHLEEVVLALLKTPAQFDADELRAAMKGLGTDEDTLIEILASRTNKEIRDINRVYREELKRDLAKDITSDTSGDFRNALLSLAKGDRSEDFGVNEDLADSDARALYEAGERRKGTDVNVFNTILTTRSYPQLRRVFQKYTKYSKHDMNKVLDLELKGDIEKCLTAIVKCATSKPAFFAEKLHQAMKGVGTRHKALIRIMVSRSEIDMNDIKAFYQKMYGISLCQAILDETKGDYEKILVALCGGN
Assay: co-IP; lysates of ANXA1/293T cells transfected with full-length or domain-deleted KIAA1199-FLAG, incubated with anti-FLAG and anti-ANXA1 antibody, respectively; Protein A/G agarose beads; western blotting

| binding | Substance |
| --- | --- |
| no binding | ΔN2-KIAA1199 (human) (domain or fragment) |
| no binding | ΔN3-KIAA1199 (human) (domain or fragment) |
| binds | ΔC1-KIAA1199 (human) (domain or fragment) |
| binds | ΔC3-KIAA1199 (human) (domain or fragment) |
| binds | ΔC2-KIAA1199 (human) (domain or fragment) |

Results are given in words; binding and its absence hold for the method and conditions named. Binding seen in cells or lysates may run through a third protein. A result given as binding can be weak or reduced; the word gives no strength.
